Consider one substance from patent US20110306057A1.

The chains behind the UniProt entries cited, without tags or fusion partners.
UniProt P30153: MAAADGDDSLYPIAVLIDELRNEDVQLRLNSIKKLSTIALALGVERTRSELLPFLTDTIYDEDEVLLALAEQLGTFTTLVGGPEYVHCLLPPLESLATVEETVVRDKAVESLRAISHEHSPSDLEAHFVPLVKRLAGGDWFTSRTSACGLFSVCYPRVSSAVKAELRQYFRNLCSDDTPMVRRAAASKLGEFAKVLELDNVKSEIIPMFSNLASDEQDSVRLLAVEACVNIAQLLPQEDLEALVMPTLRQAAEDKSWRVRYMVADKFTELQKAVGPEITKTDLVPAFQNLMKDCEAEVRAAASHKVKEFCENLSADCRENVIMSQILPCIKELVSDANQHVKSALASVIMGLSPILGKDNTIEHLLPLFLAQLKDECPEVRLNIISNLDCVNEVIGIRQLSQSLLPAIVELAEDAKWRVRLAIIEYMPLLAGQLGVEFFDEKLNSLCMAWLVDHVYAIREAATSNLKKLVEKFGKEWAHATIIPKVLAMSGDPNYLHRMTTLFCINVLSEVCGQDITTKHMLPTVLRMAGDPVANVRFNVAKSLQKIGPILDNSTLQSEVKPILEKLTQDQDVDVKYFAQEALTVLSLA
UniProt P03081: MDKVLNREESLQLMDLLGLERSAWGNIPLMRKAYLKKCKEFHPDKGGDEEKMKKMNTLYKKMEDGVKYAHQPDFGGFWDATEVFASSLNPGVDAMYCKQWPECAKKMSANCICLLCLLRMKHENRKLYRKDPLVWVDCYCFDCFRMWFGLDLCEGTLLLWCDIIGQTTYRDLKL

This assay addresses FLAG-epitope tagged PP2A Aα (UniProt P30153). In words: GST pull-down with glutathione-agarose from 293T lysates, immunoblot. Background: A western blot detects proteins with antibodies after separation by electrophoresis.

These are yes or no findings as the source states them, for the method shown. In cells and extracts the contact can be indirect. Some entries that bind do so weakly or less than the wild type.

On to “GST-tagged SV40 small t antigen (ST) (from UniProt P03081 1-174)”, for which the binding entry is “binds”.
